Values joined by “and” are separate entries in the source; they are usually repeats but may differ in a detail not shown here. Equal values may be shown once. Some of the results follow. Single values are uncertain here, since repeats match poorly.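 HEK293T cells were given each compound shortly before transfection with a reporter in which red mCherry is followed by the SARS-CoV-2 frameshift element and then GFP in the −1 frame, so GFP appears only after frameshifting.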
Tested on: SARS-CoV-2 -1 PRF reporter mCherry-FSE-GFP(-1)
Test: percent effect, decrease of GFP/mCherry ratio (-1 PRF reporter) relative to controls; higher = stronger frameshift inhibition
Settings: 10 µM; 24 h; HEK293T

`CC[C@@]1(O)C[C@H](O[C@H]2C[C@H](N(C)C)[C@H](O[C@H]3C[C@H](O)[C@H](O[C@H]4CCC(=O)[C@H](C)O4)[C@H](C)O3)[C@H](C)O2)c2c(cc3c(c2O)C(=O)c2c(O)cccc2C3=O)[C@H]1C(=O)OC` [Aclarubicin] was tested. Which percent effect did it give?
Its percent effect is 33.3%.

Which percent effect does the source give for `O=C(NC[C@H]1CN(c2ccc(N3CCOCC3=O)cc2)C(=O)O1)c1ccc(Cl)s1` [Rivaroxaban] here?
The percent effect was -2.33%.

With `C[C@H]1CN(C[C@H](Cc2ccccc2)C(=O)NCC(=O)O)CC[C@@]1(C)c1cccc(O)c1` [Entereg] as the compound, how does the percent effect read?
The percent effect was -6.43%.

How did the percent effect turn out when `CC(C)[C@H](N)C(=O)OCC(CO)OCn1cnc2c(=O)nc(N)[nH]c21` (some centres not stated) was run?
The percent effect was -1.02%.

How did the percent effect turn out when `CC(C)(C)CC(C)(C)c1ccc(O)c(-n2nc3ccccc3n2)c1` [octrizole] was run?
Its percent effect is 1.94%.

Which percent effect does the source give for `CC(C)(O)CC(C)(O)c1ccc(Cl)cc1` (configuration not stated) [fenpentadiol] here?
The percent effect was -0.138%.

How did the percent effect turn out when `CC(=O)O[C@H]1C[C@H](O[C@H]2[C@@H](O)C[C@H](O[C@H]3[C@@H](O)C[C@H](O[C@H]4CC[C@@]5(C)[C@H](CC[C@@H]6[C@@H]5CC[C@]5(C)[C@@H](C7=CC(=O)OC7)CC[C@]65O)C4)O[C@@H]3C)O[C@@H]2C)O[C@H](C)[C@H]1O` [acetyldigitoxin] was run?
The percent effect was -11.4%.

How did the percent effect turn out when `CCN(CC)CC#CCOC(=O)C(O)(c1ccccc1)C1CCCCC1` (configuration not stated) [oxybutynin] was run?
The percent effect was -6.74%.

Which percent effect does the source give for `CC(C)(O)C(C)(O)c1ccc(Cl)cc1` (configuration not stated) [phenaglycodol] here?
The percent effect was -8.11%.

`COC(=O)Nc1nc2cc(C(=O)c3ccc(F)cc3)ccc2[nH]1` [Flubendazole] was tested. Which percent effect did it give?
The percent effect was -7.27% and -11.8%.

Which percent effect does the source give for `CCc1nc(N)nc(N)c1-c1ccc(Cl)cc1` [pyrimethamine] here?
The percent effect was -4.94%.

`CCCCCC(=O)O[C@]1(C(C)=O)CC[C@H]2[C@@H]3CCC4=CC(=O)CC[C@]4(C)[C@H]3CC[C@@]21C` [hydroxyprogesterone caproate] was tested. Which percent effect did it give?
Its percent effect is -1.4% and -6.54%.

Source: the supplement of paper PMC8256030
